Results reported in patent publication US20230070181A1.
No constants are given. Whether binding was seen depends on the method and setting. Binding seen in cells or lysates may run through a third protein. Some entries that bind do so weakly or less than the wild type.

Protein sequences, listed by entry. Tags and fused reporters are not part of them. Residues count along the entry.
UniProt Q96KQ7, residues 2-1210: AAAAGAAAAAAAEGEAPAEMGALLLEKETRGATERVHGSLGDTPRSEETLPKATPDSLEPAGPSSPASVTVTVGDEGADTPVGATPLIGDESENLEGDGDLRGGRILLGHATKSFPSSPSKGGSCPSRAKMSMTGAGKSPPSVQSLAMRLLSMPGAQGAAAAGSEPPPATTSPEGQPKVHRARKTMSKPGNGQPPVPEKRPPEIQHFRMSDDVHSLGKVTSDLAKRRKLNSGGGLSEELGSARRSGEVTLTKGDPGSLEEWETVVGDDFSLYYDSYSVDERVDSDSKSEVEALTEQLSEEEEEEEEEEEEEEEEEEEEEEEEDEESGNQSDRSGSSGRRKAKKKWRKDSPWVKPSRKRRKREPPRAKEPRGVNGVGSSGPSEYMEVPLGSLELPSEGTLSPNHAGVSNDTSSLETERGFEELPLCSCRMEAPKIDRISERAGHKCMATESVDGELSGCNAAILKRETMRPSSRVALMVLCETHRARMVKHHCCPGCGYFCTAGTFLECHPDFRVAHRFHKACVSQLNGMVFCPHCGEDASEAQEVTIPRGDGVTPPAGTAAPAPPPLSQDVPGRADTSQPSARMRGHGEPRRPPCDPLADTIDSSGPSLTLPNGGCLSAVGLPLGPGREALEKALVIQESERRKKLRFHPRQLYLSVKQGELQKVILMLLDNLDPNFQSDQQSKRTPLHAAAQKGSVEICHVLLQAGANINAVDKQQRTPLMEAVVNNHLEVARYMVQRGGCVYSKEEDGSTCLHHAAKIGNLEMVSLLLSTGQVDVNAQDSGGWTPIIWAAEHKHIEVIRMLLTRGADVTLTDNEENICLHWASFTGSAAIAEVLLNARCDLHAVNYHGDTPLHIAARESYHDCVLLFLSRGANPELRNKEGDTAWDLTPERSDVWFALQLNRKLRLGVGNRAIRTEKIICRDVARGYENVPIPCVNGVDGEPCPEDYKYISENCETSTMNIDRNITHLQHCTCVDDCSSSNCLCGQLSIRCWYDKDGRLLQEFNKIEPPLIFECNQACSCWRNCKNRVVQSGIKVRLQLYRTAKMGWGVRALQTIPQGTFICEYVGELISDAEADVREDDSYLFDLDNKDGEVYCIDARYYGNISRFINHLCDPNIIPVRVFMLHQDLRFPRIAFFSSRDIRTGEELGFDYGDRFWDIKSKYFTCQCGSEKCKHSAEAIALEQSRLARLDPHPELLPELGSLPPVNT

Molecular target: T1, Chromodomain on Y-like 2 (CDYL2), endogenous protein in MCF7 / HEK293T cell lysates (human) (UniProt Q8N8U2)
T1 sequence: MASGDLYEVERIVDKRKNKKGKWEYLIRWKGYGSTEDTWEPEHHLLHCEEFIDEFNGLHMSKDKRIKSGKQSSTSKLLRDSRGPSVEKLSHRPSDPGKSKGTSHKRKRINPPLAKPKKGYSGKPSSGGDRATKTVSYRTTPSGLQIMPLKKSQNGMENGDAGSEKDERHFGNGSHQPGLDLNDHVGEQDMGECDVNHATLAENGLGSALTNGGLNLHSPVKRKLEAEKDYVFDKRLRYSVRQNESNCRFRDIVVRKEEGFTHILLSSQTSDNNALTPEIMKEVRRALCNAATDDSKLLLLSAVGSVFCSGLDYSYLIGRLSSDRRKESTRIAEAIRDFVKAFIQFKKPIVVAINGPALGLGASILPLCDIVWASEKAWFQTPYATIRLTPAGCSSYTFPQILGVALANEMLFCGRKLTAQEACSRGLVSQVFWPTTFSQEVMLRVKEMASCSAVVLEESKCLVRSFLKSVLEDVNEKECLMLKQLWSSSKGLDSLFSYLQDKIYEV
Assay: reciprocal co-immunoprecipitation (G9a IP) from MCF7 lysates, immunoblot

- binding: binds
Substance: histone methyltransferase G9a (H3K9 methyltransferase G9a/EHMT2), endogenous in MCF7 lysates (from UniProt Q96KQ7 2-1210) (enzyme)
